Hit rate of the full screen: of about 52,000 sequences, about 210 (0.4%) were called active.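 How the source made its calls: active means gene whose silencing raises cell survival under the drug, median off-target-corrected z-score across its silencing RNAs 2 or more; inactive means the rest.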 Some of the results follow.

This experiment in a line: Resistance to Poly (ADP-Ribose) Polymerase inhibitor: Gene Identification via Genome-wide siRNA Screen. To be noted: mouse BRCA2 R2336H ES cells, olaparib, CellTiter-Glo viability; hits give high values. In outline:
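Genome-wide siRNA screen (3 siRNAs/gene, 20 nM) in mouse ES cells carrying hypomorphic BRCA2 R2336H; olaparib 500 nM added 48 h post-transfection, CellTiter-Glo viability 72 h later. Normalized to plate-median negative control; MAD z-scores, gene median, seed-adjusted.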
Background: Cellular ATP, detected with luciferase, serves as a proxy for viable cell number.
Take GGACUGAAACUAGGUAGGGTT against Dact2: the z-score was inactive: 0.771. For CCUCACGGCCUUAUAUCUCTT against Fmod the value was inactive: 0.0939. For “GGACUUGAACUGAAAAGUUTT against D830013H23Rik” the value was inactive: 0.299; for GCUGUGAUCUCAGUAUUCATT against Strbp, inactive: 2.3. For GGGUGUUGAUGUCAUUGUGTT against Dbn1 the value was inactive: 0.871. Take GCAUUUUAAUGCGCCAGUUTT against Atp2c1: the z-score is inactive: -1. In the case of CCAAUGAAUACUUGUCAGCTT against Cpne2, the z-score is inactive: -1.21. Under “GGCUACUGUAAGAUUUCUATT against 4933406M09Rik” stands inactive: -0.398; under “GGUUGGCUUCCUGAAGAUCTT against 1700037H04Rik”, inactive: -1.18; under GCCUGACGGUUGUAAGAGUTT against Npc2, inactive: 0.222.

“GGUCCUAUUCCUACCAUUCTT against A830058L05”: the z-score was inactive: 0.364.

As to AGACCGACGUGAAAGAGGATT against Hand2, the z-score was inactive: 0.508.

GGAGUGUGCUCAAUACACATT against Psmc3ip: the z-score was inactive: -1.32. As for GGAGGACAUUGGUAAAAAUTT against Ube1x, the z-score is inactive: -1.66. For GGAGAUCCAGUUUUUUAACTT against Ndst1 the value was inactive: 2.2. Under GGCAGGUUCGAAGAUGUCUTT against Mknk2 stands inactive: -2.8; under GGAAAAUAUUACUGAAGUGTT against Olfr1010, inactive: 0.351; under UUCAUUCAUAUGGACAGUUTT against Psg19, inactive: -0.0859.

In the case of CCUGUGAACGCGACAUCAATT against Notch4, the z-score was inactive: 2.82. As to GGAAGGGUAAAUUUAGAAGTT against Arrdc3, the z-score was inactive: 0.257. Under CCUUUUAACAGACAUGGUUTT against Tlr1 stands inactive: 0.55; under CCAGAAGUGGAUAAACUCUTT against Olfr122, inactive: -0.529; under GGCUUUGGAGGACUCAUUUTT against Uros, inactive: 0.614. Under GCCUGAUGACGGGAAAAUGTT against Glo1 stands inactive: -2.38; under “GCUGUUGCACCAAUUAGUCTT against 4922503E23Rik”, inactive: 0.3; under “GCUAUCUAAGCAAAAGAGATT against B230118H07Rik”, inactive: 0.32. For “CCGAAUUUGUAGGAAUCGATT against 5730599I05Rik” the value was inactive: 1.03. As for CGUAGGUUUUAUAACAUGUTT against Tead3, the z-score is inactive: -0.0557. In the case of GCAACACAGUAUGUACAAUTT against Dsg4, the z-score is inactive: 0.186.
